Assay results from article PMC7600770.
No constants are given. Whether binding was seen depends on the method and setting. In cells and extracts the contact can be indirect. Some binding calls cover weakened binding; strength is not graded here.

Sequences of proteins named here, by UniProt entry; tags and fusion partners are left off. A change or cut given only in a name is not applied to a line headed by its entry.
UniProt P49792: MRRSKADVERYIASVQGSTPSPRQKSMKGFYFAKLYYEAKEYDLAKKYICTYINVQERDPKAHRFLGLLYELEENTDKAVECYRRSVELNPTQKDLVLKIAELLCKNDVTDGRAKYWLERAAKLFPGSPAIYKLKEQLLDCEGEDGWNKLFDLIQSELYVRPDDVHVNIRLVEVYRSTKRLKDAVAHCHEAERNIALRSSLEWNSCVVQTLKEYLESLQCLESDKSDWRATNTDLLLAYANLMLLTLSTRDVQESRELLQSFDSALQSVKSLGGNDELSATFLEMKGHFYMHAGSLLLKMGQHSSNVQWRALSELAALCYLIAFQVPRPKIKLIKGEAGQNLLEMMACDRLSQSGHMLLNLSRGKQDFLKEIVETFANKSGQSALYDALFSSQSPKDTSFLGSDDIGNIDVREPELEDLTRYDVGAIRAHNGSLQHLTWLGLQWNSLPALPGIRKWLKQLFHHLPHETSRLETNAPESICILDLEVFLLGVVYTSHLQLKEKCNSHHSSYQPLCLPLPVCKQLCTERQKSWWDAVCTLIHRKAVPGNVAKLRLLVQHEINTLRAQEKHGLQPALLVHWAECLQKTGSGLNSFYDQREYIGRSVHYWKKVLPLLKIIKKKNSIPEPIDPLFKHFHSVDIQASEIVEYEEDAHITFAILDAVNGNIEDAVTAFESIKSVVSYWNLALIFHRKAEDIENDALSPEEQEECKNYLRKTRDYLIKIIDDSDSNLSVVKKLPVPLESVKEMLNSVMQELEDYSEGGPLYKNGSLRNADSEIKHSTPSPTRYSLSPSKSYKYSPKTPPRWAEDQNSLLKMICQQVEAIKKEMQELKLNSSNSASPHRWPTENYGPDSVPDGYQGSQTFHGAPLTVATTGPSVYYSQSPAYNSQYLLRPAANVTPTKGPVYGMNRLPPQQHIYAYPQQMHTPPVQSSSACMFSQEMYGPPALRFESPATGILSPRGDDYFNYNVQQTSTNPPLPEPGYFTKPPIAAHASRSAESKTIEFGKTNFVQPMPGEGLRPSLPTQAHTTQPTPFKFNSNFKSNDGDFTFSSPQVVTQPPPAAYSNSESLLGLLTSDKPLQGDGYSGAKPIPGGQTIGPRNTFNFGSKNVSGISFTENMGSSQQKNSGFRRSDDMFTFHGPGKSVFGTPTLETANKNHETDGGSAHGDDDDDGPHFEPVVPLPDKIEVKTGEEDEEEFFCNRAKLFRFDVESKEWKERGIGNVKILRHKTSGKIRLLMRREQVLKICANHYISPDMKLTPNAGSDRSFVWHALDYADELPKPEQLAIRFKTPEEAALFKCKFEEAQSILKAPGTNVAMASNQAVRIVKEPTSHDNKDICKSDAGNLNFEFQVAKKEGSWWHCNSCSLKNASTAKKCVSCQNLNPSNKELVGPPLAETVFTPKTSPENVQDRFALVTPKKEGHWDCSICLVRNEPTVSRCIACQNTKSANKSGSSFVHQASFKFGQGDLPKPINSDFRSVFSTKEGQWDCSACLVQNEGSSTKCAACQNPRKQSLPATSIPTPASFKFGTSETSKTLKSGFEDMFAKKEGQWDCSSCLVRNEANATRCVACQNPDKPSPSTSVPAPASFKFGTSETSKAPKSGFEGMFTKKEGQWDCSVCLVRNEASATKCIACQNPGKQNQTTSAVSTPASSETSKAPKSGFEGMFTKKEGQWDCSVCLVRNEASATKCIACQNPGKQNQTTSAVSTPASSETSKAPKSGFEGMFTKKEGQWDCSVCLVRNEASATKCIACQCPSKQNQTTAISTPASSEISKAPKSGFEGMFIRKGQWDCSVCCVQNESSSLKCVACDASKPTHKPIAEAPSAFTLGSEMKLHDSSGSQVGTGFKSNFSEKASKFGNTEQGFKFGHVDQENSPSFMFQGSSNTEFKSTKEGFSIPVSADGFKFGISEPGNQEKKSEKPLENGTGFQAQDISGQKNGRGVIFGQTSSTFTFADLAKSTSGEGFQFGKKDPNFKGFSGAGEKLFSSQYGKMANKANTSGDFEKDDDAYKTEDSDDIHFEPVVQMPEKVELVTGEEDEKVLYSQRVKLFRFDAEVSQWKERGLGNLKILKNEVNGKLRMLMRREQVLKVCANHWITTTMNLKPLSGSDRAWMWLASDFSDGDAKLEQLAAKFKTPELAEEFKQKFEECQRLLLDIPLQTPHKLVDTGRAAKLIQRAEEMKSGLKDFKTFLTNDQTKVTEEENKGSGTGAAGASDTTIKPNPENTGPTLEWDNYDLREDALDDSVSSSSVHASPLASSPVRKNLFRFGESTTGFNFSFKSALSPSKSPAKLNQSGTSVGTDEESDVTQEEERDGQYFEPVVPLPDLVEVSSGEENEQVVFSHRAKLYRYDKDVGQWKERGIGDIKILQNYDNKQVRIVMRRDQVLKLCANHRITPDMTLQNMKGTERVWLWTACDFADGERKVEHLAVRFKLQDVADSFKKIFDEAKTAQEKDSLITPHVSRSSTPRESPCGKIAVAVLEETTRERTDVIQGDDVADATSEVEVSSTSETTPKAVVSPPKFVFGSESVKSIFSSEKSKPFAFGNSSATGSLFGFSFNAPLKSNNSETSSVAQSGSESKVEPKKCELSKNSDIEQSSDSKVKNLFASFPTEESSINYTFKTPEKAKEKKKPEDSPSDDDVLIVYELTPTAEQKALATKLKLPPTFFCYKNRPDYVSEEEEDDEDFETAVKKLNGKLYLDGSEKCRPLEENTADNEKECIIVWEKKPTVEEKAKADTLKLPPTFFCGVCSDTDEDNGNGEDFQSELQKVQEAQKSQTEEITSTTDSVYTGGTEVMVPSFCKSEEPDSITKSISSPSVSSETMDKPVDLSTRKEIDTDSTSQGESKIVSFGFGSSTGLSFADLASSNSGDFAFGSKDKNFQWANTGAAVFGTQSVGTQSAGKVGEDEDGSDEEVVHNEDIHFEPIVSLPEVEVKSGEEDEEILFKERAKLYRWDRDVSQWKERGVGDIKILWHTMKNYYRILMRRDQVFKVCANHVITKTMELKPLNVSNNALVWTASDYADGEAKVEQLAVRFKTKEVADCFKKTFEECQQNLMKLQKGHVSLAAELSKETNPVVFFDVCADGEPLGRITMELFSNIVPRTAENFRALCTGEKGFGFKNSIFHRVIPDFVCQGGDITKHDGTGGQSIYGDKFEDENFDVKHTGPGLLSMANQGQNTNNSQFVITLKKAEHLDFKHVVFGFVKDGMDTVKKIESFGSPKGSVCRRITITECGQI
UniProt O14980: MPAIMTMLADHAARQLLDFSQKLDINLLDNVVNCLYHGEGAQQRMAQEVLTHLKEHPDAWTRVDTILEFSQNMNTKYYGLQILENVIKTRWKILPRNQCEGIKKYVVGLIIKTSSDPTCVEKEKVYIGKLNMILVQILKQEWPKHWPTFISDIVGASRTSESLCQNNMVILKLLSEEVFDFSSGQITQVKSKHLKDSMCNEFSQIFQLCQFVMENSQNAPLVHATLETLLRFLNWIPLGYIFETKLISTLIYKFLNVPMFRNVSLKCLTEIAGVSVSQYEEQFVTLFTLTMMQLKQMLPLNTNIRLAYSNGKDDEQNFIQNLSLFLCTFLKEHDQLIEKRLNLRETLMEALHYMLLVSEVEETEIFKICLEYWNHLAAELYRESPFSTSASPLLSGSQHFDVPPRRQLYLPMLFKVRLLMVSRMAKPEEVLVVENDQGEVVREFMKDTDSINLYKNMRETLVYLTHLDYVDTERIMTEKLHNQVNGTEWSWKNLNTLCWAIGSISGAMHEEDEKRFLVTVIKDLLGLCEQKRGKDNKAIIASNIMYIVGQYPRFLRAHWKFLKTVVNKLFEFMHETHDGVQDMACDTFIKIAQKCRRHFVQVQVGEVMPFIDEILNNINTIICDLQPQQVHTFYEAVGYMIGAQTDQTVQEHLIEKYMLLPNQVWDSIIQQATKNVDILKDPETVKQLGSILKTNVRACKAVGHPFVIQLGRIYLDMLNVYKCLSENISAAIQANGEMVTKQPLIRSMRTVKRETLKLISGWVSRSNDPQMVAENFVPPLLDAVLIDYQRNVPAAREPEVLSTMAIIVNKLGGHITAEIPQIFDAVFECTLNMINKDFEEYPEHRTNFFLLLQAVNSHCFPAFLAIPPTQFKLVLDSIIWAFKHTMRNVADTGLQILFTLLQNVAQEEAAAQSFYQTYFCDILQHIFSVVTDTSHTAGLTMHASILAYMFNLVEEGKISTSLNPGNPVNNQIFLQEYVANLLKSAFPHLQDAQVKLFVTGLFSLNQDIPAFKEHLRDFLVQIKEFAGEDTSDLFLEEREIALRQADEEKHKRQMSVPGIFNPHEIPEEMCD
UniProt Q14974: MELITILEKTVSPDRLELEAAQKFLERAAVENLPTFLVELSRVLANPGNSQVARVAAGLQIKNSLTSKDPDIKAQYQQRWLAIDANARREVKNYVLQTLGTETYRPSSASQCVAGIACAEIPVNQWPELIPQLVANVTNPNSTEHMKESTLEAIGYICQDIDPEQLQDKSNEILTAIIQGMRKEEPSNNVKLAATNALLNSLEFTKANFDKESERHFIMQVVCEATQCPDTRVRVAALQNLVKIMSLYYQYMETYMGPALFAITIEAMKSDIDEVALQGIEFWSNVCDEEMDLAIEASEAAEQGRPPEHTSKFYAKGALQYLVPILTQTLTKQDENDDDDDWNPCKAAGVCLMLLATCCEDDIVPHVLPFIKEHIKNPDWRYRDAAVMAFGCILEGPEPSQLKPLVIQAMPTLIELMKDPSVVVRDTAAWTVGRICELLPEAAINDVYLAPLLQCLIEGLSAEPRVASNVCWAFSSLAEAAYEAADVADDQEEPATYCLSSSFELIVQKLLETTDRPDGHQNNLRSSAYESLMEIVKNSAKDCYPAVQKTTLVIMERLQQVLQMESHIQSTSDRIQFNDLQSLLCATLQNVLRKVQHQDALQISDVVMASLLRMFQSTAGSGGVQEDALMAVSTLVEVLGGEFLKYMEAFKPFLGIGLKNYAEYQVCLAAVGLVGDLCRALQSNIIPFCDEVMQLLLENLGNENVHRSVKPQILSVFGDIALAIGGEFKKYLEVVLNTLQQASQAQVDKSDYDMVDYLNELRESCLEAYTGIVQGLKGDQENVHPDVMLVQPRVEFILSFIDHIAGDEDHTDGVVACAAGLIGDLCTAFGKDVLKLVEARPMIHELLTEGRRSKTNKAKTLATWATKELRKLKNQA

Tests used:
Test in all cases: proximity ligation; Duolink In Situ Red PLA on MedB1, UH-01 and U2940 cells with primary Abs and PLUS/MINUS probes; no primary Ab as negative control; red dots counted by confocal microscopy
[1] = target: RanBP2 (NUP358) (human (endogenous in MedB1, UH-01, U2940)) (UniProt P49792)
[2] = target: exportin 1 (XPO1), wild type (human (endogenous in U2940 and K1106)) (UniProt O14980)
[3] = target: exportin 1 E571K mutant (XPO1^E571K) (human (endogenous in MedB1 and UH-01)) (UniProt O14980)

Measured: binding

karyopherin β1 (importin β1, KPNB1, IPO1) (from UniProt Q14974 1-876)
binds: all assays above
